Data as given in PubChem BioAssay AID504467 (National Center for Advancing Translational Sciences (NCATS), 2011).
Hit rate of the full screen: of about 330,000 compounds, about 7,700 (2.3%) were called active. Inconclusive results, whose numbers are uncertain, are shown with a selection of clear calls. Calls come from the whole dose curve; as a rule, active = well fitted inhibition curve with a large enough effect; inconclusive = small, poorly fitted or top-dose-only effect, or effect the other way; inactive = flat fitted curve, though single readings scatter. Potencies of inconclusive entries are doubtful fits and often do not repeat.

Test: qHTS screen for small molecules that inhibit ELG1-dependent DNA repair in human embryonic kidney (HEK293T) cells expressing luciferase-tagged ELG1; note: nearly all actives have a fitted effect of over 55% in size
Conditions: HEK293T ELG1-luciferase reporter, luminescence, 16 h, DNA damage induced by 5-fluorouridine; series mostly up to 46.1 µM
Summary of the method: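 Overnight (16 hr) co-exposure of 2,000 cells/well to 5-fluorouridine and compound at 37 °C preceded detection. Luciferase was quantified via ONE-Glo luminescence; loss of signal denotes inhibition.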
Potency is the fitted concentration of half-maximal effect.

Row | SMILES | Potency
1 | CCNC(=O)/C(C#N)=C/c1c(N2CCCCCC2)nc2c(C)cccn2c1=O | inactive
2 | O=C(COC(=O)Cc1cccc(F)c1)NC(=O)NC1CCCCC1 | inactive
3 | CCCCNC(=O)Cn1c2c(c(-c3ccccc3Cl)cc1=O)CCC2 | inconclusive: 18.4 µM [inhibitor, partial curve, poor fit]
4 | COc1ccc(C(=O)NC(=S)Nc2ccc(N3CCOCC3)cc2)cc1Cl | inconclusive: 23.1 µM [inhibitor, single point]
5 | O=S1(=O)[C@H]2C[C@@H]3C=C[C@@]2(CN1Cc1ccc(F)cc1)O3 | inconclusive: 3.26 µM [inhibitor, partial curve, poor fit]
6 | CC(C)C(NC(=O)c1ccc(C(C)(C)C)cc1)C(=O)N1CCCC1 (configuration not stated) | inconclusive: 18.3 µM [activator, partial curve, poor fit]
7 | N#Cc1c2ccc([N+](=O)[O-])cc2[n+]([O-])n1-c1ccccc1 | active: 10.3 µM
8 | O=c1[nH]cnc2c1c(-c1ccccc1)cn2-c1ccc(Br)cc1 | inactive
9 | CCOC(=O)c1sc(NC(=O)c2ccc(S(=O)(=O)N3CCCCC3)cc2)nc1-c1ccccc1 | active: 20.6 µM
10 | CCCOc1ccccc1NC(=O)CC1Nc2ccccc2NC1=O (configuration not stated) | inconclusive: 18.4 µM [inhibitor, partial curve]
11 | COc1cc2[nH]c(C(=O)Nc3ccc(F)cc3)cc2c(OC)c1OC | inconclusive: 11.6 µM [inhibitor, partial curve, poor fit]
12 | CCOc1ccc(CC2c3cc(OCC)c(OCC)cc3CCN2C(=O)c2cc(OC)c(OC)c(OC)c2)cc1OCC (configuration not stated) | inconclusive: 9.2 µM [inhibitor, partial curve, poor fit]
13 | O=C(Nc1ccccc1Cl)Nc1ccccc1Cl | inconclusive: 29.1 µM [activator, single point]
14 | CSc1sc(C(=O)O)c2c1C(=O)CCC2 | inconclusive: 16.4 µM [inhibitor, single point]
15 | CC(C)(c1cc(Br)c(O)c(Br)c1)c1cc(Br)c(O)c(Br)c1 | inactive
16 | CCN(CC)S(=O)(=O)c1cc(C(=O)OCC(=O)c2ccc3c(c2)NC(=O)CO3)ccc1F | inconclusive: 20.6 µM [inhibitor, single point]
17 | O=C(OCn1ncc(Cl)c(Cl)c1=O)c1ccc(C(F)(F)F)cc1 | inconclusive: 12.6 µM [inhibitor, partial curve, poor fit]
18 | CCOC(=O)c1ccc(-c2nnc(-c3ccc(Cl)cc3Cl)o2)cc1 | inconclusive: 2.31 µM [activator, full curve]
19 | C/C(=N\NC(=S)NCc1ccccc1)c1ccco1 | inconclusive: 8.2 µM [activator, partial curve, poor fit]
20 | O=C(NCc1ccncc1)C(=O)Nc1nccs1 | inactive
21 | COc1cccc(-c2cc(C(=O)N3CCN(Cc4ccc5c(c4)OCO5)CC3)on2)c1 | inconclusive: 29.1 µM [inhibitor, single point]
22 | CCn1c(CNc2ccc(OC)cc2)nnc1SCC(=O)c1ccc(OC)cc1 | inconclusive: 29.1 µM [inhibitor, single point]
23 | COc1ccc(-c2c(-c3ccc(O)cc3O)n[nH]c2C)cc1OC | inconclusive: 29.1 µM [inhibitor, single point]

Row | SMILES | Potency
24 | Cc1ccc(-n2c3c(c(=O)[nH]c2=S)C(C(F)(F)F)(C(F)(F)F)NC(=O)N3)cc1 | inconclusive: 25.9 µM [activator, partial curve, poor fit]
25 | CCOc1ccc(-c2cc(C(=O)NCCCN3CCN(CC)CC3)c3ccccc3n2)cc1 | inconclusive: 20.6 µM [activator, single point]
26 | CN1C[C@@H]2C(c3ccc(C(F)(F)F)cc3)C3(c4ccc(C#N)cc4)CC2(C3)[C@H]1c1ccccc1 (some centres not stated) | inconclusive: 14.6 µM [inhibitor, partial curve, poor fit]
27 | O=C(CNC(=O)c1ccc(Br)o1)NNC(=O)c1ccc(Br)cc1 | inconclusive: 25.9 µM [activator, partial curve, poor fit]
28 | COC(=O)CSc1nnc(-c2c[nH]c3ccccc23)o1 | inconclusive: 20 µM [activator, single point]
29 | CC(=O)c1c(C)[nH]c(C(=O)CSc2nnc(-c3ccco3)o2)c1C | inconclusive: 29.1 µM [inhibitor, single point]
30 | COc1ccc(CN=C2Nc3ccccc3CS2)cc1 | inconclusive: 10.3 µM [activator, partial curve]
31 | O=C(CCCl)N1CCN(c2nc(-c3ccccc3)cs2)CC1 | inconclusive: 11.2 µM [activator, partial curve, poor fit]
32 | Cc1cc(N2CCN(C)CC2)nc2ccc(NC(=S)N3CCN(c4ccccn4)CC3)cc12 | inconclusive: 29.1 µM [inhibitor, single point]
33 | CC(C)c1nc2oc3c(NCC4CCCO4)ncnc3c2c2c1CCC2 (configuration not stated) | active: 16.4 µM
34 | CC(=O)c1cc(NC(=O)c2ccccc2)c(=O)oc1C | inconclusive: 25.9 µM [activator, partial curve]
35 | CC1=NN(c2ccccc2)C(=O)/C1=C\c1cc(C)n(C)c1C | inconclusive: 20.6 µM [activator, single point]
36 | Cc1cccc(N2C(=O)C(Cc3ccccc3)NC2=S)c1 (configuration not stated) | inactive
37 | CC(=O)Nc1ccc(SCCCC(=O)c2ccccc2)cc1 | inconclusive: 23.1 µM [activator, partial curve, poor fit]
38 | CCN1C(=NCc2cc(OC)c(OC)c(OC)c2)N[C@@H](c2cccc(C(F)(F)F)c2)C(C(=O)OC)=C1C | inconclusive: 5.17 µM [inhibitor, partial curve]
39 | Nc1c(N(Cc2ccccc2)C(=O)COc2cccc(Cl)c2)c(=O)[nH]c(=O)n1Cc1ccccc1 | inactive
40 | C=CCC[C@@H](Cc1ccc(F)cc1)C(=O)OC[C@H](Cc1c[nH]c2ccccc12)NC(=O)[C@@H](CC=C)CC(=O)N(CCO)Cc1ccccc1 | active: 20.6 µM
41 | Cc1ccc(C)c(C(=O)OCC(=O)Nc2cccc(S(=O)(=O)NC3=NCCCCC3)c2)c1 | inconclusive: 25.9 µM [inhibitor, single point]
42 | CSC1=C(C#N)C(=O)NC(c2ccccc2O)S1 (configuration not stated) | inconclusive: 29.1 µM [activator, single point]
43 | Cc1ccc(/C=C/C(=O)c2cc(Br)ccc2OC(=O)c2ccco2)cc1 | inconclusive: 0.259 µM [activator, full curve, poor fit]
44 | CCC1C(=O)NCCN1C(=O)c1ccc2nc(Cc3cccc(Cl)c3)oc2c1 (configuration not stated) | inconclusive: 11.6 µM [inhibitor, partial curve]
45 | COc1cc(CC(=O)OCC(=O)N2CCN(C(=O)c3ccco3)CC2)cc(OC)c1OC | inconclusive: 18.3 µM [activator, single point]
46 | CC(NCc1ccccc1Cl)C(=O)Nc1ccc(C#N)cc1 (configuration not stated) | inactive

20 of the compounds above, comma-delimited.
Row,SMILES,Potency
24,Cc1ccc(-n2c3c(c(=O)[nH]c2=S)C(C(F)(F)F)(C(F)(F)F)NC(=O)N3)cc1,"inconclusive: 25.9 µM [activator, partial curve, poor fit]"
26,CN1C[C@@H]2C(c3ccc(C(F)(F)F)cc3)C3(c4ccc(C#N)cc4)CC2(C3)[C@H]1c1ccccc1 (some centres not stated),"inconclusive: 14.6 µM [inhibitor, partial curve, poor fit]"
28,COC(=O)CSc1nnc(-c2c[nH]c3ccccc23)o1,"inconclusive: 20 µM [activator, single point]"
29,CC(=O)c1c(C)[nH]c(C(=O)CSc2nnc(-c3ccco3)o2)c1C,"inconclusive: 29.1 µM [inhibitor, single point]"
30,COc1ccc(CN=C2Nc3ccccc3CS2)cc1,"inconclusive: 10.3 µM [activator, partial curve]"
31,O=C(CCCl)N1CCN(c2nc(-c3ccccc3)cs2)CC1,"inconclusive: 11.2 µM [activator, partial curve, poor fit]"
32,Cc1cc(N2CCN(C)CC2)nc2ccc(NC(=S)N3CCN(c4ccccn4)CC3)cc12,"inconclusive: 29.1 µM [inhibitor, single point]"
33,CC(C)c1nc2oc3c(NCC4CCCO4)ncnc3c2c2c1CCC2 (configuration not stated),active: 16.4 µM
34,CC(=O)c1cc(NC(=O)c2ccccc2)c(=O)oc1C,"inconclusive: 25.9 µM [activator, partial curve]"
35,CC1=NN(c2ccccc2)C(=O)/C1=C\c1cc(C)n(C)c1C,"inconclusive: 20.6 µM [activator, single point]"
36,Cc1cccc(N2C(=O)C(Cc3ccccc3)NC2=S)c1 (configuration not stated),inactive
37,CC(=O)Nc1ccc(SCCCC(=O)c2ccccc2)cc1,"inconclusive: 23.1 µM [activator, partial curve, poor fit]"
38,CCN1C(=NCc2cc(OC)c(OC)c(OC)c2)N[C@@H](c2cccc(C(F)(F)F)c2)C(C(=O)OC)=C1C,"inconclusive: 5.17 µM [inhibitor, partial curve]"
39,Nc1c(N(Cc2ccccc2)C(=O)COc2cccc(Cl)c2)c(=O)[nH]c(=O)n1Cc1ccccc1,inactive
40,C=CCC[C@@H](Cc1ccc(F)cc1)C(=O)OC[C@H](Cc1c[nH]c2ccccc12)NC(=O)[C@@H](CC=C)CC(=O)N(CCO)Cc1ccccc1,active: 20.6 µM
41,Cc1ccc(C)c(C(=O)OCC(=O)Nc2cccc(S(=O)(=O)NC3=NCCCCC3)c2)c1,"inconclusive: 25.9 µM [inhibitor, single point]"
42,CSC1=C(C#N)C(=O)NC(c2ccccc2O)S1 (configuration not stated),"inconclusive: 29.1 µM [activator, single point]"
43,Cc1ccc(/C=C/C(=O)c2cc(Br)ccc2OC(=O)c2ccco2)cc1,"inconclusive: 0.259 µM [activator, full curve, poor fit]"
45,COc1cc(CC(=O)OCC(=O)N2CCN(C(=O)c3ccco3)CC2)cc(OC)c1OC,"inconclusive: 18.3 µM [activator, single point]"
46,CC(NCc1ccccc1Cl)C(=O)Nc1ccc(C#N)cc1 (configuration not stated),inactive

Carrying on:

Row | SMILES | Potency
47 | COc1ccc(OC)c(NC(=O)c2cnc(Nc3ccccc3OC)c3ccccc23)c1 | inconclusive: 11.6 µM [inhibitor, partial curve]
48 | CCCCn1c(=O)c(CCC(=O)O)nc2ccccc21 | inconclusive: 23.1 µM [inhibitor, single point]
49 | CCOc1ccc2ccccc2c1CNCCc1ccc(S(N)(=O)=O)cc1 | inactive
50 | CSc1nsc2nc(=O)c(/C=C3\C(C)=Nc4ccc(C)cc43)c(N)n12 | inconclusive: 20.6 µM [inhibitor, single point]
51 | O=C(/C=C/c1ccc(-c2ccccc2[N+](=O)[O-])o1)c1ccco1 | inactive
52 | Oc1ccc(-c2[nH]nc(-c3ccccc3)c2-c2nc3ccccc3[nH]2)cc1 | inactive
53 | O=C(NS(=O)(=O)Oc1ccccc1F)OC[C@@H]1CCCN2CCCCC12 (some centres not stated) | inactive
54 | CN(N)c1nc(-c2ccccc2)cc(-c2ccccc2)n1 | inconclusive: 29.1 µM [inhibitor, single point]
55 | O=C(NNC(=O)c1ccccc1Br)c1ccncc1 | inactive
56 | COc1ccc(NC(=O)CCCN2C(=O)C3CC=CCC3C2=O)cc1 (configuration not stated) | inconclusive: 29.1 µM [activator, single point]
57 | CCN(CC)c1ccc(/C=N/NC(=O)c2cccc(S(=O)(=O)Nc3ccccc3OC)c2)cc1 | inactive
58 | CCCCNC(=S)Nc1ccc(-c2nc3ccc(C)cc3s2)cc1 | inconclusive: 2.59 µM [activator, full curve]
59 | Cc1ccccc1C(=O)c1cn[nH]c1-c1ccccc1O | inconclusive: 20.6 µM [activator, partial curve, poor fit]
60 | CC(=O)NNC(=O)c1cc2sccc2s1 | inconclusive: 11.6 µM [activator, partial curve, poor fit]
61 | CCOc1cc(CNn2cnnc2SCC(=O)NC(C)(C)C)ccc1OCC(=O)NC(C)(C)C | inconclusive: 18.3 µM [inhibitor, partial curve]
62 | CN(C)c1cccc(C(=O)NNC(=O)NC2CCCCC2)c1 | inconclusive: 23.1 µM [activator, partial curve, poor fit]
63 | CC1CC(C)CN(CCCNC(=O)Cn2ncc3c(=O)oc4ccccc4c32)C1 (configuration not stated) | inactive
64 | CCCc1nc2oc3c(NCCN(C)C)ncnc3c2c2c1CCCC2 | inactive
65 | Cc1c(Cl)cccc1NC(=O)Nc1ccn(C)n1 | inconclusive: 20.6 µM [activator, single point]
66 | COc1ccccc1CN1C(=O)CNC1=S | inactive
67 | CN(C(=O)CSc1nc2ccccc2o1)C1CCCCC1 | inconclusive: 6.51 µM [activator, partial curve]
